Results from the supplement of paper PMC12067093, “Discovery and optimisation of a covalent ligand for TRIM25 and its application to targeted protein ubiquitination” (Chemical Science, 2025).
The list shows a part of the results.

Sequences of proteins named here, by UniProt entry; tags and fusion partners are left off. A change or cut given only in a name is not applied to a line headed by its entry.
UniProt Q14139: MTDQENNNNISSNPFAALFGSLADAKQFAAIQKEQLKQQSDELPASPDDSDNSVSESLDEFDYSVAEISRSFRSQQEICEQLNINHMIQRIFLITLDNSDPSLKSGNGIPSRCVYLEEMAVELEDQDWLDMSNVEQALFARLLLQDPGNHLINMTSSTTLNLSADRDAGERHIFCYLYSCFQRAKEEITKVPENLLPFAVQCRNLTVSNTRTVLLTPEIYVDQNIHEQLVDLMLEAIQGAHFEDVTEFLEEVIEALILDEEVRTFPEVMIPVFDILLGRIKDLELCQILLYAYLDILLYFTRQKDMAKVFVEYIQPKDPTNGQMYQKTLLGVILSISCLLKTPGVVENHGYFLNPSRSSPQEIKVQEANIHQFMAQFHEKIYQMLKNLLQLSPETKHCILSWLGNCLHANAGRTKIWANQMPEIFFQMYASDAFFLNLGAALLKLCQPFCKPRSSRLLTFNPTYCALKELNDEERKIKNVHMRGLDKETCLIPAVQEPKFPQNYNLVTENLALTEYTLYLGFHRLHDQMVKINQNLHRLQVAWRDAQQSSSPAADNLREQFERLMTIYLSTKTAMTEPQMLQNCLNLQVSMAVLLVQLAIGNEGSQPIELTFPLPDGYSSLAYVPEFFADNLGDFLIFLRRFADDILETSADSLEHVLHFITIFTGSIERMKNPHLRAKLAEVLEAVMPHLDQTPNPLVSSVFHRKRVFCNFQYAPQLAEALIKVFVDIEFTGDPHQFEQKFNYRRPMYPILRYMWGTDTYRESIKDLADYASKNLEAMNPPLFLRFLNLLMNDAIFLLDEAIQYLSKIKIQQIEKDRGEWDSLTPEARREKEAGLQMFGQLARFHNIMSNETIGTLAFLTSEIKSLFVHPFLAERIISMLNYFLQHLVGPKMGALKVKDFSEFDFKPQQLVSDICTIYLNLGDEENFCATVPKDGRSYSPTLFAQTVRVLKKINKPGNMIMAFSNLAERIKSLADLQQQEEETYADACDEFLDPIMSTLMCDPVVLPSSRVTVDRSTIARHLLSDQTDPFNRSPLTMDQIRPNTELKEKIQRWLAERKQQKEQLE
UniProt Q8IWV8: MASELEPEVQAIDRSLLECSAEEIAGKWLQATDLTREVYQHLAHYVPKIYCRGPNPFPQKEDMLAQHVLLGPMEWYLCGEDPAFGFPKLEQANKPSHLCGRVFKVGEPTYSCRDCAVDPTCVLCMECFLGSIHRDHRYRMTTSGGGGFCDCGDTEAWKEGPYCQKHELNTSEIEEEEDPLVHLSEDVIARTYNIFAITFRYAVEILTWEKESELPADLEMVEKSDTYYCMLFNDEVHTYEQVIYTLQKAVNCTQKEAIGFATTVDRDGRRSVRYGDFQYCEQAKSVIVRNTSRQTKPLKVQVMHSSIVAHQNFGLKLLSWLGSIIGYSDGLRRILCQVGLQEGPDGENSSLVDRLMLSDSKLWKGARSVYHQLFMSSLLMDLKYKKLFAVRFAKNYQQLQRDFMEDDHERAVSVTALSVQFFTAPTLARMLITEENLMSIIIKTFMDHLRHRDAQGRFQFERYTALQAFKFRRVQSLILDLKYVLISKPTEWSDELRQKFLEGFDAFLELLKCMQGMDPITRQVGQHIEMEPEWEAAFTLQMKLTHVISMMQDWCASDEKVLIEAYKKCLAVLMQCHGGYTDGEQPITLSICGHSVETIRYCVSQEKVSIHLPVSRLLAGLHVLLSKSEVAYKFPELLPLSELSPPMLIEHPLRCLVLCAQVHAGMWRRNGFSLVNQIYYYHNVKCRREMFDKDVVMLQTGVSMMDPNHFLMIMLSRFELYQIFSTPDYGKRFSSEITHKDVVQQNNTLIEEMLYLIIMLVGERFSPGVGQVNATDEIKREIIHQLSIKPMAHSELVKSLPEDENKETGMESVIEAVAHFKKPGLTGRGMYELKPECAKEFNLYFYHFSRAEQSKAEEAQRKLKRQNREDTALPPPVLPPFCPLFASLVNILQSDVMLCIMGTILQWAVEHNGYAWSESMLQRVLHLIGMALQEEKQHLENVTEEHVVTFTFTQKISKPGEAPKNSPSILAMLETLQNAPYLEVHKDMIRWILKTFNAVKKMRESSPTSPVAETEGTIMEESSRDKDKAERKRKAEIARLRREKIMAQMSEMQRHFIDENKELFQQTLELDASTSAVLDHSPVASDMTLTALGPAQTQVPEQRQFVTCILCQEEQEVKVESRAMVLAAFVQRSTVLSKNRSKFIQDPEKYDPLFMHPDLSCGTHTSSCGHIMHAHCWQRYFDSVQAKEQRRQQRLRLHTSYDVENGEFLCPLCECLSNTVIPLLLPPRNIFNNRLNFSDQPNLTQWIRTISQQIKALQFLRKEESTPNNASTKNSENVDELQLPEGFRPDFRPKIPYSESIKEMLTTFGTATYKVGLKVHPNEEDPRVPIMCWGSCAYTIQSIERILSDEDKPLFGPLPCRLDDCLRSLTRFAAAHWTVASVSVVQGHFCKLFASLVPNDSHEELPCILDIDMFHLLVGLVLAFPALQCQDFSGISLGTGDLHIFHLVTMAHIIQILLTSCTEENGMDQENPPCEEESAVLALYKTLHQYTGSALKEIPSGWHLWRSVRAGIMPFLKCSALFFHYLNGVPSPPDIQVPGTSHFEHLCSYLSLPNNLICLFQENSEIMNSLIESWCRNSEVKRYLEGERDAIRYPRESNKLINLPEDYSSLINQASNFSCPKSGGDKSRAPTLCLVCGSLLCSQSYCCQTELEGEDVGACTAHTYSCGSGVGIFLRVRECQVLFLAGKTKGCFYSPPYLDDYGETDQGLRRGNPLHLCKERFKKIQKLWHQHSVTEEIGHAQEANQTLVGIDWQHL
UniProt Q9UBT2: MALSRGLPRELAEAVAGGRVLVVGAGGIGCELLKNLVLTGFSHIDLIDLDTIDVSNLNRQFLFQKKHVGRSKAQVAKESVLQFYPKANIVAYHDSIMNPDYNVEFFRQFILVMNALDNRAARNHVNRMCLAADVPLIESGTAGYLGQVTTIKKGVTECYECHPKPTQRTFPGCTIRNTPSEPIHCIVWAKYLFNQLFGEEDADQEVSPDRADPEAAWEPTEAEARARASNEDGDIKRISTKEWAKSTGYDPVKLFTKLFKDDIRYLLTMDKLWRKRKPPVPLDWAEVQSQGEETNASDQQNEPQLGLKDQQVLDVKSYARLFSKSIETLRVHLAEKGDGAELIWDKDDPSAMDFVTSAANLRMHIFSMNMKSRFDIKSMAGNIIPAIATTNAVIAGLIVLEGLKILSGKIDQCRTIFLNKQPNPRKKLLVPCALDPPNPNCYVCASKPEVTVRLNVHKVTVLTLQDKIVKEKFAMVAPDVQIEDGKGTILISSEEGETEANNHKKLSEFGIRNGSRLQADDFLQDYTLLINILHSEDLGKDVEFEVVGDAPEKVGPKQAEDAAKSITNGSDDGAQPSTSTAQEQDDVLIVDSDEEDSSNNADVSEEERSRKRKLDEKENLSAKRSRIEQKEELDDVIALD
UniProt P22314: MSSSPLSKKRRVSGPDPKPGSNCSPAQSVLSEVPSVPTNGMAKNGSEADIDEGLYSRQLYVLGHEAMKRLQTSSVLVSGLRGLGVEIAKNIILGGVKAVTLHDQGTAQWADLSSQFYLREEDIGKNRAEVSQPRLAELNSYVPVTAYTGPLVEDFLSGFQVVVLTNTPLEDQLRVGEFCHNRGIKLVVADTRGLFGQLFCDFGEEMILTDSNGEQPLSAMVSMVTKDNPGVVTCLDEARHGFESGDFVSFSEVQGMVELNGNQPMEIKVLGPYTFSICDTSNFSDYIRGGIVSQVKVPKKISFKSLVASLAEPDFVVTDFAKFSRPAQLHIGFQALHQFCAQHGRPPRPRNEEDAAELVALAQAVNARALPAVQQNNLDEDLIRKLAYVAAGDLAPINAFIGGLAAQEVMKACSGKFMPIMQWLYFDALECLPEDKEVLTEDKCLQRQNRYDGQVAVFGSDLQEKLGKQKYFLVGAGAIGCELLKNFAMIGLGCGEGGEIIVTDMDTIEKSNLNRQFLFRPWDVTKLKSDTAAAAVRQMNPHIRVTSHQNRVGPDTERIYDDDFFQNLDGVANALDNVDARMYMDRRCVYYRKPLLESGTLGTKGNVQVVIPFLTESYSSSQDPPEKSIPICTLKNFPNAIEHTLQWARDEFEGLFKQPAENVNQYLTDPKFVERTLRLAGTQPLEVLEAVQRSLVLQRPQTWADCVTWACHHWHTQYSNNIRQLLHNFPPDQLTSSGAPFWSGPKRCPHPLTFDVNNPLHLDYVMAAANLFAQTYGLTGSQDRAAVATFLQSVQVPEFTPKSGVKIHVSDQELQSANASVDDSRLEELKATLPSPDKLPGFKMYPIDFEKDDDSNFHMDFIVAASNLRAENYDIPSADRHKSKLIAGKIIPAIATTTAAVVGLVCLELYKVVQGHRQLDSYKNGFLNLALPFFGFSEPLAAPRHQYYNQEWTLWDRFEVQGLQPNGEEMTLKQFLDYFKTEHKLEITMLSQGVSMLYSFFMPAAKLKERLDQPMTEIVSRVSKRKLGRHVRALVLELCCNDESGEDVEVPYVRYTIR
UniProt P29597: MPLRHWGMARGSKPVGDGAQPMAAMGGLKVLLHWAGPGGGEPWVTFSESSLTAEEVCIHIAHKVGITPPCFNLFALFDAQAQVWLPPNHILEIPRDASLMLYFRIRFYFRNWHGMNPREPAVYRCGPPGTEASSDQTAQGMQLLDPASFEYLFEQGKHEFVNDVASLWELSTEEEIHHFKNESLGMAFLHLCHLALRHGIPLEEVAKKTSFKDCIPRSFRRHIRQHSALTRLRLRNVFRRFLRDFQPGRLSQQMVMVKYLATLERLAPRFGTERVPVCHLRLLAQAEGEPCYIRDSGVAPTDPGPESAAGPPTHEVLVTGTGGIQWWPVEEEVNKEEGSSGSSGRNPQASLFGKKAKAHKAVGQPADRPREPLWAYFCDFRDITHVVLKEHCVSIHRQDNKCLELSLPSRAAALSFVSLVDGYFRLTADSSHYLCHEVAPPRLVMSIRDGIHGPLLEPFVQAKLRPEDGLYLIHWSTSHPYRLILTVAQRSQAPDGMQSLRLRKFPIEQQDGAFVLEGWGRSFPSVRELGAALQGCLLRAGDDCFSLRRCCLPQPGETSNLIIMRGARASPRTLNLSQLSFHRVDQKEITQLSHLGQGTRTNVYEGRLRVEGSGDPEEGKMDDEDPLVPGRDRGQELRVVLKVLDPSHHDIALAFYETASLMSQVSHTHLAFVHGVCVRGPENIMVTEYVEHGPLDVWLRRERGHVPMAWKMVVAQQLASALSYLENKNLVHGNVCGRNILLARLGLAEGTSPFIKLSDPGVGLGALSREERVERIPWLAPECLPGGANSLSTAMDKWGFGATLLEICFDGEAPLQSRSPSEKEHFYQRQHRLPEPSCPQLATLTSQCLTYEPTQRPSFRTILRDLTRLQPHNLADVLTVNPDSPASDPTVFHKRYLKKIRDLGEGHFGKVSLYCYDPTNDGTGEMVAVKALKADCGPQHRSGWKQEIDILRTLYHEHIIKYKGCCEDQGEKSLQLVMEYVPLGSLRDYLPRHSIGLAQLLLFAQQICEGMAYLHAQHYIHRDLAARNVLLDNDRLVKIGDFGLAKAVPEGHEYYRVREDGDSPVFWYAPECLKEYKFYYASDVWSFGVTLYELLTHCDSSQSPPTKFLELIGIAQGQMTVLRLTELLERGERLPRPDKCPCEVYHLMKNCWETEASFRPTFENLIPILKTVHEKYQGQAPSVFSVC
UniProt Q05086: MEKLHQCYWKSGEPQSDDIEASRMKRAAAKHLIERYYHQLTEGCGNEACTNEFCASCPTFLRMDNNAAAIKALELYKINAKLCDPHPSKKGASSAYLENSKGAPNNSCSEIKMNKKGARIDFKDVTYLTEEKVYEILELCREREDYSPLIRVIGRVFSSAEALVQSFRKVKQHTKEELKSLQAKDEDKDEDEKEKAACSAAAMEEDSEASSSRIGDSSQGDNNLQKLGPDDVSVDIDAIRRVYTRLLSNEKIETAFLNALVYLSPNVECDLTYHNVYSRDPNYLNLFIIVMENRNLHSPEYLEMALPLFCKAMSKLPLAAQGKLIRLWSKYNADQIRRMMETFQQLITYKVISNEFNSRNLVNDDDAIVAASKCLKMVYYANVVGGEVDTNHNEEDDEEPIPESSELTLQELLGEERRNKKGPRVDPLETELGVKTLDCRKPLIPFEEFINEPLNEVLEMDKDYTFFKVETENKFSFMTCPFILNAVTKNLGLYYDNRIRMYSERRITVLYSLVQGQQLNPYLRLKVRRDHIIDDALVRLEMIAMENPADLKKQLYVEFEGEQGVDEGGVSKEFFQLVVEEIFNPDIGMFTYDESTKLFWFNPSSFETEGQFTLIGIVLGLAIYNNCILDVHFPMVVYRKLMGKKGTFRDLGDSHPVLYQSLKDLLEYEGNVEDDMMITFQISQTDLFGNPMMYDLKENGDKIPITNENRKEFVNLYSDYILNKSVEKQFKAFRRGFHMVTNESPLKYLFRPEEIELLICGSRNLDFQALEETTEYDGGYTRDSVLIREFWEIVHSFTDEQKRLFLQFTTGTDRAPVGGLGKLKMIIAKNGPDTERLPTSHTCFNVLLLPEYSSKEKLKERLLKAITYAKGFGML

Compound: Cc1cc(ccc1-c1ccccc1)C(=O)N1CCCN(CC1)C(=O)CCl [compound 10]
Assay: probe-labelled cysteine peptide fold change vs DMSO (competition) (log2 fold change); higher = less target engagement (more negative = stronger competition)
Details: THP-1, incubation time: 4 h
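Further: competitive profiling in live THP-1 cells: cysteine peptides tagged with an iodoacetamide desthiobiotin (IA-DTB) probe, intensity after compound treatment relative to DMSO-treated cells.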

Target	probe-labelled cysteine peptide fold change (10 µM)	probe-labelled cysteine peptide fold change (50 µM)
UBE2J2_Q8N2K1_157_VFCELFPEVVEEIK (UniProt Q8N2K1)	0.0262	-0.0163
UBE4A_Q14139_465_LLTFNPTYCALK (UniProt Q14139)	-0.0648	0.0328
UBA3_Q8TBC4_164_QFHIIVCGLDSIIAR (UniProt Q8TBC4)	-0.0578	-0.0829
UBL5_Q9BZL1_6_IEVVCNDR (UniProt Q9BZL1)	0.0345	-0.229
UBE2M_P61081_95_CETMVYHPNIDLEGNVCLNILR (UniProt P61081)	0.0603	-0.0752
U2SURP_O15042_320_NCGFVAFMNR (UniProt O15042)	-0.0802	-0.268
UBR2_Q8IWV8_127_DCAVDPTCVLCMECFLGSIHR (UniProt Q8IWV8)	-0.0675	-0.0727
UBN1_Q9NPG3_38_EEAGAGEQHQDCEPAAAAVR (UniProt Q9NPG3)	-0.0725	0.125
UBA2_Q9UBT2_129_MCLAADVPLIESGTAGYLGQVTTIKK (UniProt Q9UBT2)	-0.0261	-0.243
UBR4_Q5T4S7_2554_AVQCLNTSSK (UniProt Q5T4S7)	-0.27	-0.543
UBR4_Q5T4S7_1033_TYINQLSMNSPEMSECDILHTLR (UniProt Q5T4S7)	-0.0865	0.0548
UBR2_Q8IWV8_1619_LINLPEDYSSLINQASNFSCPK (UniProt Q8IWV8)	0.0975	-0.0342
UBR5_O95071_769_YCIFDLATGK (UniProt O95071)	0.227	0.176
UACA_Q9BZF9_1258_KYEEVCEEVLHAK (UniProt Q9BZF9)	0.18	0.267
UBR5_O95071_2094_NCLEVLPTK (UniProt O95071)	-0.311	-0.989
UBE2I_P63279_75+93_CKFEPPLFHPNVYPSGTVCLSILEEDK (UniProt P63279)	-0.171	-0.0829
UBE4A_Q14139_490_ETCLIPAVQEPK (UniProt Q14139)	-0.186	-0.0363
UBA1_P22314_278_VLGPYTFSICDTSNFSDYIR (UniProt P22314)	0.119	0.115
UBA1_P22314_1040_ALVLELCCNDESGEDVEVPYVR (UniProt P22314)	0.0912	0.0492
UBR4_Q5T4S7_779_ASAQGDPDVPECLK (UniProt Q5T4S7)	0.161	0.427

Target	probe-labelled cysteine peptide fold change (10 µM)	probe-labelled cysteine peptide fold change (50 µM)
TYK2_P29597_402_CLELSLPSR (UniProt P29597)	0.229	-0.142
TYK2_P29597_936_ADCGPQHR (UniProt P29597)	-0.0616	-0.288
UBA2_Q9UBT2_129_MCLAADVPLIESGTAGYLGQVTTIK (UniProt Q9UBT2)	-0.0118	0.124
UBE2S_Q16763_95_IFHPNVGANGEICVNVLK (UniProt Q16763)	-0.0588	0.0218
UBA1_P22314_632_SIPICTLK (UniProt P22314)	-0.0921	-0.282
TXNL1_O43396_135+137+149_AGCECLNESDEHGFDNCLR (UniProt O43396)	-0.739	-0.998
UBR4_Q5T4S7_2222_HTACNEQQR (UniProt Q5T4S7)	-0.245	-1.12
UBE3A_Q05086_83_LCDPHPSK (UniProt Q05086)	0.02	-0.108
UBASH3B_Q8TF42_70_SVQAACDWLFSHVGDPFLDDPLPR (UniProt Q8TF42)	0.0638	-0.117
UBA6_A0AVT1_682_IQSGHSLEGCFQVIK	0.141	0.172
UBE3A_Q05086_198_AACSAAAMEEDSEASSSR (UniProt Q05086)	-0.044	-0.416
UBR4_Q5T4S7_122_LENPDEACAVSQK (UniProt Q5T4S7)	-0.41	0.432
UBE2O_Q9C0C9_585_SNDLFPVHHLDNNEFCPGDFVVDK (UniProt Q9C0C9)	-0.118	0.0764
UAP1L1_Q3KQV9_271+278_LADPVFIGFCVLQGADCGAK (UniProt Q3KQV9)	0.157	-0.0665
UBR2_Q8IWV8_115_DCAVDPTCVLCMECFLGSIHR (UniProt Q8IWV8)	0.0608	0.0281
UBR5_O95071_2084_CLMEVTVDR (UniProt O95071)	-0.0883	-0.683
UBE2I_P63279_43_NPDGTMNLMNWECAIPGKK (UniProt P63279)	0.0841	-0.18
UBE2O_Q9C0C9_375_NCAQGEGSMAK (UniProt Q9C0C9)	-0.0634	-0.156
UBR5_O95071_572_VGVLMESVWNMNDSCR (UniProt O95071)	-0.0405	0.0537

Three records picked at random from the list so far:
Target	probe-labelled cysteine peptide fold change (10 µM)	probe-labelled cysteine peptide fold change (50 µM)
UBR4_Q5T4S7_2222_HTACNEQQR (UniProt Q5T4S7)	-0.245	-1.12
UBE3A_Q05086_83_LCDPHPSK (UniProt Q05086)	0.02	-0.108
UBR5_O95071_2084_CLMEVTVDR (UniProt O95071)	-0.0883	-0.683
